{"source": "PubChem BioAssay AID1159578 (Peter MacCallum Cancer Centre, 2015)", "assay": "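Genome-wide hunt for genes controlling movement of lymphatic endothelial cells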 (primary screen)", "system": "human lymphatic endothelial cells", "knock-down reagent": "siRNA pool against human genes, 40 nM", "duration": "48 h after transfection", "detection": "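High-content imaging of dye-stained cells in a scratch assay measures filled wound area and nuclei per well; duplicate means given as ratio to mock and robust z-score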", "reading the numbers": "migration robust z-score: higher = faster migration into the scratch; nuclei per well: higher = more cells in the well", "active means": "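Migration changed when robust z exceeds 2 or falls below -2 and mean nuclei number is at least 3300; otherwise not called changed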", "meaning of the calls": "active = migration changed; inactive = no migration change, or too few cells", "note": "This is one part, drawn at random, of about 18,000 reagents tested. About 1,030 of them (5.7%) count as active. 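Inactive calls also include pools with fewer than 3300 nuclei, whose migration was not assessed.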 Raw values vary from plate to plate and are shown uncorrected. Not all columns of the deposit are shown."}
{"gene symbol": "AIG1", "migration robust z-score": -0.52, "nuclei per well, duplicate mean": 5890, "Outcome": "inactive"}
{"gene symbol": "GNAZ", "migration robust z-score": 0.37, "nuclei per well, duplicate mean": 5166, "Outcome": "inactive"}
{"gene symbol": "CWC27", "migration robust z-score": 0.26, "nuclei per well, duplicate mean": 5382, "Outcome": "inactive"}
{"gene symbol": "CWF19L2", "migration robust z-score": -0.95, "nuclei per well, duplicate mean": 5412, "Outcome": "inactive"}
{"gene symbol": "TEX30", "migration robust z-score": -0.56, "nuclei per well, duplicate mean": 5724, "Outcome": "inactive"}
{"gene symbol": "CD58", "migration robust z-score": -0.6, "nuclei per well, duplicate mean": 3891, "Outcome": "inactive"}
{"gene symbol": "HSD11B1", "migration robust z-score": 0.29, "nuclei per well, duplicate mean": 6024, "Outcome": "inactive"}
{"gene symbol": "LPAR6", "migration robust z-score": 1.15, "nuclei per well, duplicate mean": 5617, "Outcome": "inactive"}
{"gene symbol": "STK11", "migration robust z-score": -1.97, "nuclei per well, duplicate mean": 1935, "Outcome": "inactive"}
{"gene symbol": "YAP1", "migration robust z-score": -0.29, "nuclei per well, duplicate mean": 4240, "Outcome": "inactive"}
{"gene symbol": "CCDC181", "migration robust z-score": 0.67, "nuclei per well, duplicate mean": 6281, "Outcome": "inactive"}
{"gene symbol": "DHX8", "migration robust z-score": -0.44, "nuclei per well, duplicate mean": 5960, "Outcome": "inactive"}
{"gene symbol": "INHBE", "migration robust z-score": -0.85, "nuclei per well, duplicate mean": 5464, "Outcome": "inactive"}
{"gene symbol": "TRIM7", "migration robust z-score": 0.02, "nuclei per well, duplicate mean": 5110, "Outcome": "inactive"}
{"gene symbol": "ATF6", "migration robust z-score": -1.43, "nuclei per well, duplicate mean": 4330, "Outcome": "inactive"}
{"gene symbol": "DES", "migration robust z-score": -0.11, "nuclei per well, duplicate mean": 5452, "Outcome": "inactive"}
{"gene symbol": "CERT1", "migration robust z-score": 0.05, "nuclei per well, duplicate mean": 6323, "Outcome": "inactive"}
{"gene symbol": "TK1", "migration robust z-score": 0.01, "nuclei per well, duplicate mean": 5398, "Outcome": "inactive"}
{"gene symbol": "APOBEC3D", "migration robust z-score": -3.58, "nuclei per well, duplicate mean": 3584, "Outcome": "active"}
{"gene symbol": "TMEM252", "migration robust z-score": 0.04, "nuclei per well, duplicate mean": 5512, "Outcome": "inactive"}
{"gene symbol": "RNF113B", "migration robust z-score": 0.1, "nuclei per well, duplicate mean": 4034, "Outcome": "inactive"}
